In PubChem BioAssay AID1458 (National Center for Advancing Translational Sciences (NCATS), 2008):
About 5,900 (2.8%) of roughly 210,000 compounds were called active. Another 5% or so got no clear call; they are omitted. The call rests on the fitted dose curve; in most records, active means well fitted activation curve with a large enough effect; inconclusive means small, poorly fitted or top-dose-only effect; inactive means no such curve, though single readings can be large or run the other way. This is a selection; strong and weak results do not stand in their true shares. Where no call is shown, the source filed none.

Test: qHTS Assay for Enhancers of SMN2 Splice Variant Expression; further: nearly all actives have a fitted effect of over 55% in size; on activity change, positive = activation: % of control where 0% means no effect
Settings: HEK293 SMN2-luciferase splicing reporter, luminescence, 30-36 h; activity change, positive = activation: at 46.1 µM (top of the series) unless noted
Method in brief: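 qHTS luciferase splicing reporter: luminescence rises when SMN2 exon 7 is included in transfected HEK293 cells. Compound exposure lasted 30-36 h at 37C, with 4.5 mM final sodium butyrate as control, followed by a ONE-Glo read.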
Potency means the concentration at half of the fitted maximal effect.

| Compound | activity change, positive = activation | Potency |
| --- | --- | --- |
| O=C1c2ccccc2C(=O)C1c1ccccc1 | 48.9% | – |
| CSc1ccccc1NC(=O)Nc1ccc(Cl)cc1 | inactive: -30.7% | – |
| COc1ccc2[nH]c(C)c(CCN(Cc3cccs3)C(=S)Nc3cccc(F)c3)c2c1 | inactive: -65.7% | – |
| CCc1ccccc1N(CC(=O)OC)S(C)(=O)=O | 31.2% | – |
| CCOC(=O)NCC(C)(C)CNC(=O)OCC | 25.8% | – |
| CCCCN(C)CC(O)Cn1cc(/C=C/C(=O)c2ccc(C)cc2)c2ccccc21 (stereo not drawn) | inactive: -71% | – |
| Cc1ccc(-n2c(SCC(=O)NNC(=S)Nc3ccccc3)nc3ccccc3c2=O)cc1 | 42.2% | – |
| CC1=CCC(COC(=O)Nc2ccccc2)CC1 (stereo not drawn) | – | active: 17.8 µM |
| CC1CN(C(=O)Cc2ccc(-c3ccccc3)cc2)CC(C)O1 (stereo not drawn) | inactive: -43.2% | – |
| CCOc1cc(CNCCO)cc(Br)c1OCc1ccc(Cl)cc1Cl | -63.7% | – |
| COc1ccc(/C(C)=N/NC(=O)c2nc(C)cc(C)n2)cc1 | – | active: 11.2 µM |
| CN1CCN(C(c2cccnc2)c2ccc3cccnc3c2O)CC1 (stereo not drawn) | -65.2% | – |
| O=C(/C=C/c1ccc(Br)cc1)c1ccc(NC2=NCCCS2)cc1 | -77.6% | – |
| CCOC(=O)c1cn(CC)c2cc(N3CCSCC3)c(F)cc2c1=O | 51.8% | – |
| Cc1c(C(=O)N2CCCC2)sc(NC(=O)c2cccs2)c1C#N | 44.6% | – |
| Cc1cc(C)n(CCC(=O)N/N=C/c2ccccc2O)n1 | -94% | – |
| O=C1CN(c2ccccc2F)C(=O)CN1c1ccccc1F | 29.2% | – |
| Cc1ccc(-c2nnc(Nc3ccc(OCC(N)=O)cc3)c3ccccc23)cc1S(=O)(=O)N(C)C | inactive: -42.4% | – |
| CN(C)S(=O)(=O)c1cccc(N=C2NN=C(c3ccccc3)CS2)c1 | inactive: -57.7% | – |
| CCOc1ccc2nc(NCCNC(=O)C(C)C)c(C)cc2c1 | 17.5% | – |
| C=CCN(C(=O)CNC(=O)c1ccco1)C(C(=O)NC1CCCCC1)c1ccccc1 (stereo not drawn) | 51.2% | – |
| CN(C)S(=O)(=O)c1cccc(NC(=S)NCc2ccco2)c1 | 63% | – |
| O=C(Nc1ccc2oc(-c3ccccc3)nc2c1)c1ccncc1 | inactive: -60.8% | – |
| O=C(Nc1ccccc1)Nc1nnc(CSCc2ccccc2Cl)s1 | inactive: -75.7% | – |
| CN1CCN(C(=S)c2cn(Cc3cccc(F)c3)c3ccccc23)CC1 | 47.5% | – |
| O=C(Nc1cccc(Cl)c1)Nc1nnc(CSCCOc2ccc(Cl)cc2)s1 | -62.5% | – |
| COc1cccc(OCc2nc3ccccc3n2C)c1 | – | active: 15.8 µM |

Laid out differently: results already given
Compound	activity change, positive = activation	Potency
O=C1c2ccccc2C(=O)C1c1ccccc1	48.9%	–
CSc1ccccc1NC(=O)Nc1ccc(Cl)cc1	inactive: -30.7%	–
CCc1ccccc1N(CC(=O)OC)S(C)(=O)=O	31.2%	–
CCOC(=O)NCC(C)(C)CNC(=O)OCC	25.8%	–
Cc1ccc(-n2c(SCC(=O)NNC(=S)Nc3ccccc3)nc3ccccc3c2=O)cc1	42.2%	–
CC1=CCC(COC(=O)Nc2ccccc2)CC1 (stereo not drawn)	–	active: 17.8 µM
CC1CN(C(=O)Cc2ccc(-c3ccccc3)cc2)CC(C)O1 (stereo not drawn)	inactive: -43.2%	–
CCOc1cc(CNCCO)cc(Br)c1OCc1ccc(Cl)cc1Cl	-63.7%	–
CN1CCN(C(c2cccnc2)c2ccc3cccnc3c2O)CC1 (stereo not drawn)	-65.2%	–
O=C(/C=C/c1ccc(Br)cc1)c1ccc(NC2=NCCCS2)cc1	-77.6%	–
Cc1cc(C)n(CCC(=O)N/N=C/c2ccccc2O)n1	-94%	–
C=CCN(C(=O)CNC(=O)c1ccco1)C(C(=O)NC1CCCCC1)c1ccccc1 (stereo not drawn)	51.2%	–
CN(C)S(=O)(=O)c1cccc(NC(=S)NCc2ccco2)c1	63%	–
O=C(Nc1ccccc1)Nc1nnc(CSCc2ccccc2Cl)s1	inactive: -75.7%	–
COc1cccc(OCc2nc3ccccc3n2C)c1	–	active: 15.8 µM

Entries of single compounds, looked up by structure.
`Cc1cc(C)n(CCC(=O)N/N=C/c2ccccc2O)n1` is listed as activity change, positive = activation: -94%
`CC1CN(C(=O)Cc2ccc(-c3ccccc3)cc2)CC(C)O1` (stereo not drawn) is listed as activity change, positive = activation: inactive: -43.2%

The list goes on.

| Compound | activity change, positive = activation | Potency |
| --- | --- | --- |
| N#Cc1c(NC(=O)C2CCCO2)sc2c1CCCCC2 (stereo not drawn) | – | active: 6.31 µM |
| O=c1oc(-c2cccs2)nc2sc3c(c12)CCCCC3 | – | active: 15.8 µM |
| O=C(N/N=C1\C/C(=N\NC(=O)c2ccncc2)c2ccccc21)c1ccncc1 | 32.1% | – |
| Cc1c(NC(=O)c2cc3c(s2)-c2ccccc2OC3)cccc1[N+](=O)[O-] | -41.5% | – |
| Cc1cccc(OCC(O)CN2CC3(C)CC2CC(C)(C)C3)c1 (stereo not drawn) | 8.32% | – |
| COc1ccc(CCN2CC(C(=O)NCCc3ccccc3)CC2=O)cc1OC (stereo not drawn) | 102% | – |
| Cc1cccc(N2C(=O)CC(N3CCOCC3)C2=O)c1 (stereo not drawn) | 69.7% | – |
| Cc1nnc2sc(-c3cccc(NC(=O)c4cccnc4)c3)nn12 | 24.1% | – |
| CCOc1cc(C(=O)CSc2nnc(CNc3ccc(Cl)cc3)o2)ccc1NC(=O)CC | -68.4% | – |
| CC(C)(C)c1ccc(OCc2nc(-c3ccccn3)no2)c(Br)c1 | – | active: 12.6 µM |
| COc1ccc(CNC(=O)C(C)OC(=O)C23CC4CC(CC(O)(C4)C2)C3)cc1 (stereo not drawn) | -31.1% | – |
| COc1ccc(Cl)cc1NC(=O)NC(C)c1ccncc1 (stereo not drawn) | 39.1% | – |
| O=C(c1ccc(Br)s1)N1CCCC1 | 22.1% | – |
| COC(=O)c1cc(Br)c(=O)n(CC(C)C)c1 | 30.5% | – |
| Cc1ccc(-c2n[nH]c(=S)n2/N=C/c2ccc(C)s2)cc1 | -24.4% | – |
| O=C(CN1C(=O)c2ccccc2S1(=O)=O)NCc1ccccn1 | 42.9% | – |
| Nc1nc(Nc2ccccc2F)sc1C(=O)c1ccc(Cl)cc1 | – | active: 14.1 µM |
| CCOC(=O)N1CCN(C(=O)CS(=O)(=O)c2cn(Cc3ccc(Cl)cc3)c3ccccc23)CC1 | inactive: -61.1% | – |
| Cc1c(Cl)cccc1NC(=O)CN1CCN(CCN=CC2=C(O)CC(c3ccccc3)CC2=O)CC1 (stereo not drawn) | inactive: -46% | – |
| CCCS(=O)(=O)c1nc(S(=O)(=O)c2ccc(C)cc2)c(N2CCCC2)s1 | 56.8% | – |
| CSc1ccc(-c2ccco2)nn1 | 82% | – |
| Cc1cncn1CCc1nc2c3ccccc3nc(SCC(=O)Nc3cccc(Cl)c3)n2n1 | -55% | – |
| Cc1cccc(N2CCN(C(=O)CCc3c(C)nc4ncnn4c3C)CC2)c1C | inactive: -31.8% | – |
| CCOC(=O)c1ccccc1OCc1cc(/C=N/n2cnnc2)ccc1OC | 17.9% | – |
| C=CCOC(=O)C1=C(C)N=C2SCCC(=O)N2C1c1cccs1 (stereo not drawn) | 31% | – |
| CC(C)(C)C(=O)NCCc1nc2ccccc2n1CCCCOc1ccc(Cl)cc1 | inactive: -34.7% | – |
